Experimental data from the supplement of paper PMC12067093, “Discovery and optimisation of a covalent ligand for TRIM25 and its application to targeted protein ubiquitination” (Chemical Science, 2025).
The other results are listed elsewhere or left out.

The chains behind the UniProt entries cited, without tags or fusion partners. Where a name states a change or a piece, a line headed by the entry shows the natural chain unless it says otherwise.
UniProt O95602, whole entry, looked up: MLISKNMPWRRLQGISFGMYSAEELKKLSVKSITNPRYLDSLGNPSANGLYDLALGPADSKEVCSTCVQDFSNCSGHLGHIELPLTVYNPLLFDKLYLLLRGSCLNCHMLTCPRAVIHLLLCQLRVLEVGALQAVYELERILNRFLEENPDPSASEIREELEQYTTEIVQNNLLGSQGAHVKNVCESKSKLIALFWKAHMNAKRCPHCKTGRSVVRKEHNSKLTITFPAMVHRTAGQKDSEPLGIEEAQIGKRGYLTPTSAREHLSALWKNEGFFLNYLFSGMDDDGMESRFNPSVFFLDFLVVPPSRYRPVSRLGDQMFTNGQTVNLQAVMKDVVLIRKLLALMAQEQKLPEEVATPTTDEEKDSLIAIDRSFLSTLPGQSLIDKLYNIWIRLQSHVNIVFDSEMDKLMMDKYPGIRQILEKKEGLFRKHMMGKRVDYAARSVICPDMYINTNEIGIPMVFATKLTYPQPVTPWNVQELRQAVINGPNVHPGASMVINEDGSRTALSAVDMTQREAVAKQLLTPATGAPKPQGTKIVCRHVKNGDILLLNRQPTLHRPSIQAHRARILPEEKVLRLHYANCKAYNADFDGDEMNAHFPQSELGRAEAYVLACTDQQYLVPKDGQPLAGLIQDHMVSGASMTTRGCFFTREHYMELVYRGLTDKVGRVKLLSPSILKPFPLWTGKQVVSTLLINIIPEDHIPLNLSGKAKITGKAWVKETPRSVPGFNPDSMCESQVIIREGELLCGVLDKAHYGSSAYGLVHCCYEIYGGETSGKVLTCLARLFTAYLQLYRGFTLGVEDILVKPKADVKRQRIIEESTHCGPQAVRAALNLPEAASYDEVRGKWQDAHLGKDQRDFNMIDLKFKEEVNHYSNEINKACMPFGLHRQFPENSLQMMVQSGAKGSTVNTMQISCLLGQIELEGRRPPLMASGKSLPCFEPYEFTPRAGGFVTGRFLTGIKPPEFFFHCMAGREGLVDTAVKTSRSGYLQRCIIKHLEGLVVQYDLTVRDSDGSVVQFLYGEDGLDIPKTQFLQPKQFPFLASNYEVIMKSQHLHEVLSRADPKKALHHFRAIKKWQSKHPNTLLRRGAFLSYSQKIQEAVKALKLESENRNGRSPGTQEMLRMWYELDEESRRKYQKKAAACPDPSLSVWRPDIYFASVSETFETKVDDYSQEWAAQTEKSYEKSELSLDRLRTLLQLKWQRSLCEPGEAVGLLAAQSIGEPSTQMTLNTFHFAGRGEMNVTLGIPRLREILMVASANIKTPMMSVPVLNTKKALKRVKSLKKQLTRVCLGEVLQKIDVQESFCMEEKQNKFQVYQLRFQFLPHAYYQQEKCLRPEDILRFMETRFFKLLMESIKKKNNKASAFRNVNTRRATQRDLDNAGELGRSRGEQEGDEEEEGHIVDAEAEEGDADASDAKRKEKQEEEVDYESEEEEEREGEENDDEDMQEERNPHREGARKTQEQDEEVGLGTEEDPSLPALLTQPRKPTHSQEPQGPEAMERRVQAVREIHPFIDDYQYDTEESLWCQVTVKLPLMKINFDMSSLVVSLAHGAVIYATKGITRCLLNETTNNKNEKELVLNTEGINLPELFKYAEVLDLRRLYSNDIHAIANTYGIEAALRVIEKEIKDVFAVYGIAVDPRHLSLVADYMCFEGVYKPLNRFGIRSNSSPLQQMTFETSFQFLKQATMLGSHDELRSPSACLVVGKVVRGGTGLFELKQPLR
UniProt Q7Z3K3: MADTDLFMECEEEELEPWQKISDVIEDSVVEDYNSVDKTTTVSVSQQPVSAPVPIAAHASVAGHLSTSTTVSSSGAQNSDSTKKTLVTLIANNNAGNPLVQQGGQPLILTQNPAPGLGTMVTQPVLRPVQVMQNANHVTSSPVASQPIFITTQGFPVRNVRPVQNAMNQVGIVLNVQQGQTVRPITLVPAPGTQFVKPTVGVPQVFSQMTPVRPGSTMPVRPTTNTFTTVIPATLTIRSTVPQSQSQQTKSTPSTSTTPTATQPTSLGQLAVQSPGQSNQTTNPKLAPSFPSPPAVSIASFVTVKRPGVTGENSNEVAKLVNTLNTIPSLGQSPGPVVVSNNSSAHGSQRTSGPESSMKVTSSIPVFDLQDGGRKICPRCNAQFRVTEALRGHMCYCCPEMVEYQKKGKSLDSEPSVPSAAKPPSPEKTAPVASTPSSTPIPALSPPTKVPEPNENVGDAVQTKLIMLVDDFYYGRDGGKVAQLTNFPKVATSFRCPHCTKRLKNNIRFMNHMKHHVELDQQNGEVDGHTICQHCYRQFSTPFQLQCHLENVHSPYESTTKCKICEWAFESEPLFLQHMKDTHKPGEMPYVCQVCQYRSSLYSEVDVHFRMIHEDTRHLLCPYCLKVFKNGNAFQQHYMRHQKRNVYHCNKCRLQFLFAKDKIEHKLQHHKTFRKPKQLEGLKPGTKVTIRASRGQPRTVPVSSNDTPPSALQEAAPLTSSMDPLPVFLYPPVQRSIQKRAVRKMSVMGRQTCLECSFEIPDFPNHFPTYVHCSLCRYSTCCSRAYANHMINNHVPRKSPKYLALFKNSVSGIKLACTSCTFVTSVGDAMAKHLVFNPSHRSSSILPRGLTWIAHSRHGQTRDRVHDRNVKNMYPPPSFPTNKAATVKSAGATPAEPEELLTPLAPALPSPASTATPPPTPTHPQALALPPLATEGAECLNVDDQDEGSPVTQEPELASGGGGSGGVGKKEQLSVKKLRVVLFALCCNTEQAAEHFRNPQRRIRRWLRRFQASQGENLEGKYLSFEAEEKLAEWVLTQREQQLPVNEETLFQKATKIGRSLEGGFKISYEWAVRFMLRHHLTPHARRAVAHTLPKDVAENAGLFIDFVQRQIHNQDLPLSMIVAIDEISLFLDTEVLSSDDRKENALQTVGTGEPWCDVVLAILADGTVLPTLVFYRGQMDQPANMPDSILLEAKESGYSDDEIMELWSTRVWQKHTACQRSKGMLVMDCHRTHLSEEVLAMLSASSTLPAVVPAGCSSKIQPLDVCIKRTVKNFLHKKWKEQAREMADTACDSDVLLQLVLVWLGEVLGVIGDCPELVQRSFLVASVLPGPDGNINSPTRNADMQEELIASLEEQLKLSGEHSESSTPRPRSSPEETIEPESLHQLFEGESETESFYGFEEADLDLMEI
UniProt Q9GZS1, whole entry, looked up: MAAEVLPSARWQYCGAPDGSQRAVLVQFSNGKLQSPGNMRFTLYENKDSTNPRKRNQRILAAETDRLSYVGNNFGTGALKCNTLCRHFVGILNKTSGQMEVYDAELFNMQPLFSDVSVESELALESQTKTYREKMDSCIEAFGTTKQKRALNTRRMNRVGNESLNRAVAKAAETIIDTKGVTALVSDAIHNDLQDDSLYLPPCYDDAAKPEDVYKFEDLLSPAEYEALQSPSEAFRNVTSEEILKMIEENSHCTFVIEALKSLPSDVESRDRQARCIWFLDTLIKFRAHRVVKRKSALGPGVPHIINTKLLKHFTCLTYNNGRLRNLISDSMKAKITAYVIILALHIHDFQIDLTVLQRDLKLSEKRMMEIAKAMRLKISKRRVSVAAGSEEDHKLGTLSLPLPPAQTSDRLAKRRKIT
UniProt Q9H2U2: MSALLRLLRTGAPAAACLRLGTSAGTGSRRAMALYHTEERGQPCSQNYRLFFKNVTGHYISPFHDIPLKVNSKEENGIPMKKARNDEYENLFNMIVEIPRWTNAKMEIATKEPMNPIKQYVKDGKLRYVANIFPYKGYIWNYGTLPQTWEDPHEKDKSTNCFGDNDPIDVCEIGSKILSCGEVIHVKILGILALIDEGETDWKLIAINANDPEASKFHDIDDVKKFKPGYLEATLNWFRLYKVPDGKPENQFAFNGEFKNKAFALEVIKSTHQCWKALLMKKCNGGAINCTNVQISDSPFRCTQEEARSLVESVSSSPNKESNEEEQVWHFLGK
UniProt P09884: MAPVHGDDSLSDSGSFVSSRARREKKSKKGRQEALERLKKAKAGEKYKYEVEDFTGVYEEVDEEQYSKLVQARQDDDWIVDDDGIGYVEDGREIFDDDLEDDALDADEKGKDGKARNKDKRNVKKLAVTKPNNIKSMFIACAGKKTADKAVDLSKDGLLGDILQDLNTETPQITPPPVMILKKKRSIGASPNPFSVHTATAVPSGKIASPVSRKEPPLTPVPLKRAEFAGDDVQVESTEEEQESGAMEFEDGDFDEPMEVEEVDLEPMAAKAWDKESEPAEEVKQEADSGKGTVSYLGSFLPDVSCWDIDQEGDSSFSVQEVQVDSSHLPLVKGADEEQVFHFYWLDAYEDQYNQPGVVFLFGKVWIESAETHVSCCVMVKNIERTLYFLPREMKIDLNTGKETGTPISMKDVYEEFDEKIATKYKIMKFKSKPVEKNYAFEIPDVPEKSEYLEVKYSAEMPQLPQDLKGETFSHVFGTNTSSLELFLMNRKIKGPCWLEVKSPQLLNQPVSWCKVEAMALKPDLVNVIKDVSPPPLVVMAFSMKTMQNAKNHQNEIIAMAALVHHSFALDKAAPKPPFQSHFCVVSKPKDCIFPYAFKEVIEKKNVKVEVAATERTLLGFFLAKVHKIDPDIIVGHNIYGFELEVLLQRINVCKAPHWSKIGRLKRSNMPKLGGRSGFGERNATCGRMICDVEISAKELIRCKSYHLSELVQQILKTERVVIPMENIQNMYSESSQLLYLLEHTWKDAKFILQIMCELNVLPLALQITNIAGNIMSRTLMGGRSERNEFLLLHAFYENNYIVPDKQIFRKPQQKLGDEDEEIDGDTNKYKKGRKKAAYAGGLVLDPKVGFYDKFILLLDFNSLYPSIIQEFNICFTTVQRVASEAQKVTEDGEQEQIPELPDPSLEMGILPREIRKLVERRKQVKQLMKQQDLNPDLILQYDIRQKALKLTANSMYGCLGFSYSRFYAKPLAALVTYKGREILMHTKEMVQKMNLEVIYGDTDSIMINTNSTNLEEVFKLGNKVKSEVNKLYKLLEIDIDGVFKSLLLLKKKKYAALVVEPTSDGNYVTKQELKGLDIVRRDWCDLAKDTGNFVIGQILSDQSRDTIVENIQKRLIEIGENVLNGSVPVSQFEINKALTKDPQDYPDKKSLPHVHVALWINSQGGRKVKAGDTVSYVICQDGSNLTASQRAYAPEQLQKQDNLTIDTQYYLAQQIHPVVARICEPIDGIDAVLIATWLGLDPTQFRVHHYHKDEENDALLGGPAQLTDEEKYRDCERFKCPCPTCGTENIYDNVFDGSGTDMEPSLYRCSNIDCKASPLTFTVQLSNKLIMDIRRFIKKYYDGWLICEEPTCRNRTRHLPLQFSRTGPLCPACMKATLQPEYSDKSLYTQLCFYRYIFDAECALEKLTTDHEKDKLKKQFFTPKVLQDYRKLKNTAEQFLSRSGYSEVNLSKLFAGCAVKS
UniProt Q9UNA4: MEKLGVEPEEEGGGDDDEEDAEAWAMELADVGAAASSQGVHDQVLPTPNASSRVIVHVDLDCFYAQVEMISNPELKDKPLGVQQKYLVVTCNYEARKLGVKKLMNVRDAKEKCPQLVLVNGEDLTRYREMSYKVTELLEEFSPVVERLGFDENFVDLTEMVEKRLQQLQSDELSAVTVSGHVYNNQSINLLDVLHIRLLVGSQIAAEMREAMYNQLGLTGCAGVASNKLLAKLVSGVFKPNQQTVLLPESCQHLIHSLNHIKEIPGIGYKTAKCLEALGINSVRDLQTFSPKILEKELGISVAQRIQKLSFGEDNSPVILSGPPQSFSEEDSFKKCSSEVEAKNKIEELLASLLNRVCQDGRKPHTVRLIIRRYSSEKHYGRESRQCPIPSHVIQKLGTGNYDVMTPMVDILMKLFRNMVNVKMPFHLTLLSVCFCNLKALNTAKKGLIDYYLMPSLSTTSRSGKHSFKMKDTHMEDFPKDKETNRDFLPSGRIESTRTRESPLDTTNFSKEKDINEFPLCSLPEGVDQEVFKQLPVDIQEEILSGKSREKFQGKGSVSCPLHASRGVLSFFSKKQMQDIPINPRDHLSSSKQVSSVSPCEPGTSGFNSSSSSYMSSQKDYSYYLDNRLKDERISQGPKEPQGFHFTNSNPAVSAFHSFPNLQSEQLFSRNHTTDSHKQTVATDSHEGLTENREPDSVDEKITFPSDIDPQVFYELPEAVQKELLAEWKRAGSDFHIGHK
UniProt Q9BY77: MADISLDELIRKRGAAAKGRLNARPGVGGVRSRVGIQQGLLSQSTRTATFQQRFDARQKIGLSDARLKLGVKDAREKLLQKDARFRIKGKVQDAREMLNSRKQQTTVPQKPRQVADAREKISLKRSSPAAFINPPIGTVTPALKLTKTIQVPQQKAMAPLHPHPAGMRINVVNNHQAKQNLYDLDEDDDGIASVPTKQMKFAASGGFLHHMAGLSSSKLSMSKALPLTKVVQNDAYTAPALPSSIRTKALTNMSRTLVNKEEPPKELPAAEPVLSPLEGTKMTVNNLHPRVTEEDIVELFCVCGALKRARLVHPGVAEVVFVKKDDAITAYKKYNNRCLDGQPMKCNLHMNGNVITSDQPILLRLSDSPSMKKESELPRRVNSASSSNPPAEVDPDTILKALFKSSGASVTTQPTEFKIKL

Compound: Cc1cc(ccc1-c1ccccc1)C(=O)N1CCCN(CC1)C(=O)CCl [compound 10]
Assay: probe-labelled cysteine peptide fold change vs DMSO (competition) (log2 fold change); higher = less target engagement (more negative = stronger competition)
Conditions: THP-1, incubation time: 4 h
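Also: competitive profiling in live THP-1 cells: cysteine peptides tagged with an iodoacetamide desthiobiotin (IA-DTB) probe, intensity after compound treatment relative to DMSO-treated cells.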

Target | probe-labelled cysteine peptide fold change (50 µM) | probe-labelled cysteine peptide fold change (10 µM)
POLD1_P28340_713_LPCLEISQSVTGFGR (UniProt P28340) | -0.108 | 
POR_P16435_434_HILAILQDCPSLRPPIDHLCELLPR (UniProt P16435) | 0.0875 | 0.0553
POLR1A_O95602_1304_IDVQESFCMEEK (UniProt O95602) | 0.113 | -0.479
POGZ_Q7Z3K3_398_GHMCYCCPEMVEYQK (UniProt Q7Z3K3) | 0.138 | -0.15
POLR1A_O95602_1289_VCLGEVLQK (UniProt O95602) | 0.168 | 0.0229
POLR2A_P24928_641_VVVENGELIMGILCK (UniProt P24928) | -0.0713 | 0.076
POLR1D_P0DPB6_39_HCVTFVLHEEDHTLGNSLR (UniProt P0DPB6) | -0.0119 | 0.329
POP1_Q99575_471_WWIETCK (UniProt Q99575) | -0.11 | -0.0637
POFUT2_Q9Y2G5_375_DGGVAIIDQWICAHAR (UniProt Q9Y2G5) | -0.0306 | -0.205
POLR2A_P24928_1430_CSFEETVDVLMEAAAHGESDPMK (UniProt P24928) | -0.211 | -0.0558
POLR2M_P0CAP2_82_KSELFNPVSLDCK (UniProt P0CAP2) | -0.335 | -0.417
POLR1E_Q9GZS1_138_MDSCIEAFGTTK (UniProt Q9GZS1) | -0.495 | -0.325
PPA1_Q15181_113+114+123_HTGCCGDNDPIDVCEIGSK (UniProt Q15181) | -0.756 | -0.667
POLG2_Q9UHN1_196_LRENLLHGALEHYVNCLDLVNK (UniProt Q9UHN1) | 0.139 | 0.0512
POTEJ_P0CG39_880_LCYVALDFEQEMAMVASSSSLEK (UniProt P0CG39) | 0.222 | 0.403
POGZ_Q7Z3K3_547_QFSTPFQLQCHLENVHSPYESTTK (UniProt Q7Z3K3) | -0.262 | 0.115
POLRMT_O00411_705_TVEGATQHQELLETCPPTALHGALDALTQLGNCAWR (UniProt O00411) | -0.166 | 0.0372
POLRMT_O00411_178_QMAGCLEDCTR (UniProt O00411) | -0.992 | -0.328
PON2_Q15165_42_EVESVDLPHCHLIK (UniProt Q15165) | 0.0994 | -0.264
POP1_Q99575_745_SEVPCAPMPK (UniProt Q99575) | -0.414 | -0.487
POLQ_O75417_2411_ENDAACYIDSFK (UniProt O75417) | -0.0606 | -0.0783

Whole records from above:
POLD1_P28340_713_LPCLEISQSVTGFGR (UniProt P28340) reads probe-labelled cysteine peptide fold change (50 µM) = -0.108
POP1_Q99575_745_SEVPCAPMPK (UniProt Q99575) reads probe-labelled cysteine peptide fold change (50 µM) = -0.414; probe-labelled cysteine peptide fold change (10 µM) = -0.487

Next part:

Target | probe-labelled cysteine peptide fold change (50 µM) | probe-labelled cysteine peptide fold change (10 µM)
POGLUT1_Q8NBL1_357_NHLQMDDITCYWENLLSEYSK (UniProt Q8NBL1) | 0.0694 | -0.0315
PPA2_Q9H2U2_161_DKSTNCFGDNDPIDVCEIGSK (UniProt Q9H2U2) | -0.0943 | -0.0888
POP1_Q99575_893_EDFLQLHEDWHYCGPQESK (UniProt Q99575) | 0.0655 | -0.175
POLG_P54098_647_LPTGTTLESAGVVCPYR (UniProt P54098) | -0.992 | -0.484
POLR3A_O14802_742_LQQQPGCTAEETLEALILK (UniProt O14802) | -0.0338 | -0.214
PPIL3_Q9H2H8_25+40_TCENFLALCASNYYNGCIFHR (UniProt Q9H2H8) | 0.104 | -0.439
PPA2_Q9H2U2_302_CTQEEAR (UniProt Q9H2U2) | 0.0564 | -0.0316
POLR2A_P24928_451_HMCDGDIVIFNR (UniProt P24928) | -0.107 | -0.0734
POMGNT1_Q8WZA1_254_TDVPLSSAEEAECHWADTELNRR (UniProt Q8WZA1) | -0.0811 | 0.0339
PPA2_Q9H2U2_161_STNCFGDNDPIDVCEIGSK (UniProt Q9H2U2) | -0.00969 | 0.0149
POLR1A_O95602_446_SVICPDMYINTNEIGIPMVFATK (UniProt O95602) | 0.128 | -0.0365
POM121C_A8CG34_245_MVCSPVTVR (UniProt A8CG34) | -0.232 | 0.0592
POLD1_P28340_1061+1071_CQGSLHEDVICTSR (UniProt P28340) | -0.343 | 0.138
POLR2A_P24928_184_GHGGCGR (UniProt P24928) | -0.102 | -0.0171
POLA1_P09884_584_AAPKPPFQSHFCVVSK (UniProt P09884) | 0.281 | 0.176
POLI_Q9UNA4_336_CSSEVEAK (UniProt Q9UNA4) | -0.711 | -0.318
POU2F1_P14859-2_4_MLDCSDYVLDSR (UniProt P14859) | -0.281 | -0.0541
POLE_Q07864_2221_LMAFTLQDLVCLK (UniProt Q07864) | -0.257 | 0.251
POP1_Q99575_804_ITDQEASENHVAATGSHLCVLR (UniProt Q99575) | -0.409 | -0.282
POFUT1_Q9H488_249_NACAMLK (UniProt Q9H488) | -0.164 | -0.308
POLDIP3_Q9BY77_346_CNLHMNGNVITSDQPILLR (UniProt Q9BY77) | -0.0555 | -0.0334

Reprinted from above for reference:
Target | probe-labelled cysteine peptide fold change (50 µM) | probe-labelled cysteine peptide fold change (10 µM)
POLR2A_P24928_184_GHGGCGR (UniProt P24928) | -0.102 | -0.0171
POLA1_P09884_584_AAPKPPFQSHFCVVSK (UniProt P09884) | 0.281 | 0.176
POLI_Q9UNA4_336_CSSEVEAK (UniProt Q9UNA4) | -0.711 | -0.318
POU2F1_P14859-2_4_MLDCSDYVLDSR (UniProt P14859) | -0.281 | -0.0541

Additional records follow:

Target | probe-labelled cysteine peptide fold change (50 µM) | probe-labelled cysteine peptide fold change (10 µM)
POLR1E_Q9GZS1_14_WQYCGAPDGSQR (UniProt Q9GZS1) | 0.224 | -0.143
POP1_Q99575_270+283_ALSGMCNIDTGLTFAAVHCLSGK (UniProt Q99575) | -0.135 | 0.101
POLR2B_P30876_572_IFVNGCWVGIHK (UniProt P30876) | 0.748 | -0.0781
POLR3B_Q9NW08_593_LCRPYIIVK (UniProt Q9NW08) | -0.0422 | 0.112
POLA2_Q14181_392_HEQVENCLLTSPFEDIFK (UniProt Q14181) | -0.0478 | 0.37
POP7_O75817_66_GQNACSEIYIHGLGLAINR (UniProt O75817) | -0.0127 | -0.00332
POLR2I_P36954_42+52_NCDYQQEADNSCIYVNK (UniProt P36954) | -0.38 | -0.000456
POLDIP3_Q9BY77_301+303_VTEEDIVELFCVCGALK (UniProt Q9BY77) | -0.521 | 0.0436
PPFIBP2_Q8ND30_685_CAIHVLHVNK (UniProt Q8ND30) | 0.38 | -0.0182
POLR3E_Q9NVU0_616_MLQDTVLAAGCK (UniProt Q9NVU0) | 0.0125 | 0.0878
POLR2I_P36954_119_LYYVCTAPHCGHR (UniProt P36954) | -0.215 | -0.26
POGK_Q9P215_369_RAHDYEVAQMGNADETPICLEVPSR (UniProt Q9P215) | -0.172 | -0.235
POLD1_P28340_1026+1029_TVLSHQGAVCEFCQPR (UniProt P28340) | -0.439 | -0.235
POLR2M_P0CAP2_65_AAIAECEEVRR (UniProt P0CAP2) | 0.232 | 0.275
POLD1_P28340_1058_LWTQCQR (UniProt P28340) | 0.509 | 0.324
PPIF_P30405_104_VIPSFMCQAGDFTNHNGTGGK (UniProt P30405) | -0.00273 | 0.00215
POLR2L_P62875_10_CFTCGK (UniProt P62875) | -0.098 | -0.0403
PPID_Q08752_71_GCPFHR (UniProt Q08752) | -0.565 | -0.189
POLD1_P28340_263_FMVDTDIVGCNWLELPAGK (UniProt P28340) | -0.0448 | 0.0087
POR_P16435_472_VHPNSVHICAVVVEYETK (UniProt P16435) | 0.0461 | 0.0143
POGZ_Q7Z3K3_532_HHVELDQQNGEVDGHTICQHCYR (UniProt Q7Z3K3) | 0.264 | 0.0999

Target | probe-labelled cysteine peptide fold change (50 µM) | probe-labelled cysteine peptide fold change (10 µM)
POLR2D_O15514_99+104_FELACLANLCPETAEESK (UniProt O15514) | 0.12 | 0.0212
POLR1B_Q9H9Y6_454_TGLGLLQDSGLCVVADK (UniProt Q9H9Y6) | 0.0737 | 0.0506
PPIG_Q13427_549_ECDITK (UniProt Q13427) | 0.0987 | 0.0707
POGK_Q9P215_369_AHDYEVAQMGNADETPICLEVPSR (UniProt Q9P215) | -0.0722 | -0.299
POGZ_Q7Z3K3_621+624_HLLCPYCLK (UniProt Q7Z3K3) | -0.0733 | -0.0282
POLK_Q9UBT6_161_RLCPQLIIVPPNFDK (UniProt Q9UBT6) | 0.283 | 0.148
POLR2E_P19388_21_TIMQLCHDR (UniProt P19388) | 0.262 | 0.284
POLR3H_Q9Y535_74_CVVFHPFLDEILIGK (UniProt Q9Y535) | -0.183 | 0.244
PPFIBP1_Q86W92_140_IRDLEFCLEEHR (UniProt Q86W92) | 0.0847 | -0.0297
PPIC_P45877_191_VIDGMTVVHSIELQATDGHDRPLTNCSIINSGK (UniProt P45877) | -0.169 | 0.132
POLR2G_P62487_127_HSIPSEMEFDPNSNPPCYK (UniProt P62487) | -0.0372 | -0.102
POP1_Q99575_819_QLSAWCGPSSEDSR (UniProt Q99575) | -0.114 | 0.0101
POLR1B_Q9H9Y6_1070_SVAHVCVK (UniProt Q9H9Y6) | -0.092 | 0.11
POLR2B_P30876_221_YAYTGECR (UniProt P30876) | -0.0465 | -0.0276
POLG2_Q9UHN1_73_SHAELEGNGEHPEAPGSGEGSEALLEICQR (UniProt Q9UHN1) | 0.254 | 0.0892
POP1_Q99575_959_VTLHCSR (UniProt Q99575) | 0.0113 | 0.187
POLR1C_O15160_214_PVHDDILIAQLRPGQEIDLLMHCVK (UniProt O15160) | -0.119 | -0.0314
PPA1_Q15181_114_HTGCCGDNDPIDVCEIGSK (UniProt Q15181) | 0.181 | 0.105
POLD1_P28340_761_VVYGDTDSVMCR (UniProt P28340) | -0.0891 | -0.0809
POLD1_P28340_837_RDNCPLVANLVTASLR (UniProt P28340) | -0.238 | -0.0973
